# Assay results reported in the supplement of paper PMC8728848.
# The other results are listed elsewhere or left out.
# Legend:
# Test in all cases: glycan array binding signal (z-score within array); higher = stronger binding
# Details in all cases: glycan notation: IUPAC condensed, linker removed
# [1] = biological target: Neu5Ac(a2-6)Gal(b1-3)GlcNAc(b1-3)[Gal(b1-4)GlcNAc(b1-6)]Gal(b1-4)Glc
# How it was run: (§1)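 From the Consortium for Functional Glycomics database, 3228 arrays were curated, keeping only those whose protein sequence was available. Binding is given as a within-array Z-score averaged across arrays sharing a protein sequence and across linkers. Negative Z-scores can be read as non-binding.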
# [2] = biological target: Neu5Ac(a2-6)Gal(b1-4)Glc
# How it was run: as §1
# [3] = biological target: Neu5Ac(a2-6)Gal(b1-4)GlcNAc
# How it was run: as §1
# [4] = biological target: Neu5Ac(a2-6)Gal(b1-4)GlcNAc(b1-2)Man
# How it was run: as §1
# [5] = biological target: Neu5Ac(a2-6)Gal(b1-4)GlcNAc(b1-2)Man(a1-3)Man(b1-4)GlcNAc(b1-4)GlcNAc
# How it was run: as §1
# [6] = biological target: Neu5Ac(a2-6)Gal(b1-4)GlcNAc(b1-2)Man(a1-3)[Gal(b1-4)GlcNAc(b1-2)Man(a1-6)]Man(b1-4)GlcNAc(b1-4)GlcNAc
# How it was run: as §1
# [7] = biological target: Neu5Ac(a2-6)Gal(b1-4)GlcNAc(b1-2)Man(a1-3)[GlcNAc(b1-2)Man(a1-6)]Man(b1-4)GlcNAc(b1-4)GlcNAc
# How it was run: as §1
# [8] = biological target: Neu5Ac(a2-6)Gal(b1-4)GlcNAc(b1-2)Man(a1-3)[GlcNAc(b1-4)][Neu5Ac(a2-6)Gal(b1-4)GlcNAc(b1-2)Man(a1-6)]Man(b1-4)GlcNAc(b1-4)GlcNAc
# How it was run: as §1
# [9] = biological target: Neu5Ac(a2-6)Gal(b1-4)GlcNAc(b1-2)Man(a1-3)[Man(a1-6)]Man(b1-4)GlcNAc(b1-4)GlcNAc
# How it was run: as §1
# [10] = biological target: Neu5Ac(a2-6)Gal(b1-4)GlcNAc(b1-2)Man(a1-3)[Neu5Ac(a2-3)Gal(b1-4)GlcNAc(b1-2)Man(a1-6)]Man(b1-4)GlcNAc(b1-4)GlcNAc
# How it was run: as §1
# [11] = biological target: Neu5Ac(a2-6)Gal(b1-4)GlcNAc(b1-2)Man(a1-3)[Neu5Ac(a2-6)Gal(b1-4)GlcNAc(b1-2)Man(a1-6)]Man(b1-4)GlcNAc(b1-4)GlcNAc
# How it was run: as §1
# [12] = biological target: Neu5Ac(a2-6)Gal(b1-4)GlcNAc(b1-2)Man(a1-3)[Neu5Ac(a2-6)Gal(b1-4)GlcNAc(b1-2)Man(a1-6)]Man(b1-4)GlcNAc(b1-4)[Fuc(a1-6)]GlcNAc
# How it was run: as §1
# [13] = biological target: Neu5Ac(a2-6)Gal(b1-4)GlcNAc(b1-2)Man(a1-6)Man(b1-4)GlcNAc(b1-4)GlcNAc
# How it was run: as §1
# [14] = biological target: Neu5Ac(a2-6)Gal(b1-4)GlcNAc(b1-2)Man(a1-6)[Gal(b1-4)GlcNAc(b1-2)Man(a1-3)]Man(b1-4)GlcNAc(b1-4)GlcNAc
# How it was run: as §1
# [15] = biological target: Neu5Ac(a2-6)Gal(b1-4)GlcNAc(b1-2)Man(a1-6)[GlcNAc(b1-2)Man(a1-3)]Man(b1-4)GlcNAc(b1-4)GlcNAc
# How it was run: as §1
# [16] = biological target: Neu5Ac(a2-6)Gal(b1-4)GlcNAc(b1-2)Man(a1-6)[Man(a1-3)]Man(b1-4)GlcNAc(b1-4)GlcNAc
# How it was run: as §1
# [17] = biological target: Neu5Ac(a2-6)Gal(b1-4)GlcNAc(b1-2)[Neu5Ac(a2-6)Gal(b1-4)GlcNAc(b1-4)]Man(a1-3)[GlcNAc(b1-4)][Neu5Ac(a2-6)Gal(b1-4)GlcNAc(b1-2)[Neu5Ac(a2-6)Gal(b1-4)GlcNAc(b1-6)]Man(a1-6)]Man(b1-4)GlcNAc(b1-4)GlcNAc
# How it was run: as §1
# [18] = biological target: Neu5Ac(a2-6)Gal(b1-4)GlcNAc(b1-2)[Neu5Ac(a2-6)Gal(b1-4)GlcNAc(b1-4)]Man(a1-3)[GlcNAc(b1-4)][Neu5Ac(a2-6)Gal(b1-4)GlcNAc(b1-4)Man(a1-6)]Man(b1-4)GlcNAc(b1-4)GlcNAc
# How it was run: as §1
# [19] = biological target: Neu5Ac(a2-6)Gal(b1-4)GlcNAc(b1-2)[Neu5Ac(a2-6)Gal(b1-4)GlcNAc(b1-6)]Man(a1-6)[Neu5Ac(a2-6)Gal(b1-4)GlcNAc(b1-2)Man(a1-3)][GlcNAc(b1-4)]Man(b1-4)GlcNAc(b1-4)GlcNAc
# How it was run: as §1
# [20] = biological target: Neu5Ac(a2-6)Gal(b1-4)GlcNAc(b1-3)Gal(b1-3)GlcNAc
# How it was run: as §1
# [21] = biological target: Neu5Ac(a2-6)Gal(b1-4)GlcNAc(b1-3)Gal(b1-4)GlcNAc
# How it was run: as §1
# [22] = biological target: Neu5Ac(a2-6)Gal(b1-4)GlcNAc(b1-3)Gal(b1-4)GlcNAc(b1-2)Man(a1-3)[Neu5Ac(a2-6)Gal(b1-4)GlcNAc(b1-3)Gal(b1-4)GlcNAc(b1-2)Man(a1-6)]GalNAc
# How it was run: as §1
# [23] = biological target: Neu5Ac(a2-6)Gal(b1-4)GlcNAc(b1-3)Gal(b1-4)GlcNAc(b1-3)Gal(b1-4)GlcNAc
# How it was run: as §1
binder,measurement,setting,value
EULS2 M3 (Oryza sativa) (protein) MVYCRANPNYAMTARNGAVVLAPANPKDEYQHWIKDMRWSTSIKDEEGYPAFALVNKATGQAIKHSLGQSHPVRLVPYNPEVMDESVLWTESRDVGNGFRCIRMVNNIYLNFDAFHGDKYHGGVRDGTDIVLWKLCEGDSLRWKIQPYYILEQKLISEEDLNSAVDHHHHHH,glycan array binding signal (z-score),[1],-0.647
same,glycan array binding signal (z-score),[2],-0.276
same,glycan array binding signal (z-score),[3],-1.1
same,glycan array binding signal (z-score),[4],-0.17
same,glycan array binding signal (z-score),[5],-0.302
same,glycan array binding signal (z-score),[6],-0.422
same,glycan array binding signal (z-score),[7],-0.195
same,glycan array binding signal (z-score),[8],-0.444
same,glycan array binding signal (z-score),[9],1.2
same,glycan array binding signal (z-score),[10],-0.391
same,glycan array binding signal (z-score),[11],-0.369
same,glycan array binding signal (z-score),[12],-0.007
same,glycan array binding signal (z-score),[13],-0.553
same,glycan array binding signal (z-score),[14],-0.636
same,glycan array binding signal (z-score),[15],-0.231
same,glycan array binding signal (z-score),[16],0.023
same,glycan array binding signal (z-score),[17],1.37
same,glycan array binding signal (z-score),[18],-0.673
same,glycan array binding signal (z-score),[19],0.124
same,glycan array binding signal (z-score),[20],-0.218
same,glycan array binding signal (z-score),[21],-0.96
same,glycan array binding signal (z-score),[22],0.359
same,glycan array binding signal (z-score),[23],-0.967

# For convenience, some entries already given.
binder,measurement,setting,value
EULS2 M3 (Oryza sativa) (protein) MVYCRANPNYAMTARNGAVVLAPANPKDEYQHWIKDMRWSTSIKDEEGYPAFALVNKATGQAIKHSLGQSHPVRLVPYNPEVMDESVLWTESRDVGNGFRCIRMVNNIYLNFDAFHGDKYHGGVRDGTDIVLWKLCEGDSLRWKIQPYYILEQKLISEEDLNSAVDHHHHHH,glycan array binding signal (z-score),[3],-1.1
same,glycan array binding signal (z-score),[4],-0.17
